PMC5362516
These are yes or no findings as the source states them, for the method shown. In cells and extracts the contact can be indirect. Some entries that bind do so weakly or less than the wild type.

Biological target: T1, LATS1 (human (endogenous in SK-Hep-1)) (UniProt O95835)
T1 sequence: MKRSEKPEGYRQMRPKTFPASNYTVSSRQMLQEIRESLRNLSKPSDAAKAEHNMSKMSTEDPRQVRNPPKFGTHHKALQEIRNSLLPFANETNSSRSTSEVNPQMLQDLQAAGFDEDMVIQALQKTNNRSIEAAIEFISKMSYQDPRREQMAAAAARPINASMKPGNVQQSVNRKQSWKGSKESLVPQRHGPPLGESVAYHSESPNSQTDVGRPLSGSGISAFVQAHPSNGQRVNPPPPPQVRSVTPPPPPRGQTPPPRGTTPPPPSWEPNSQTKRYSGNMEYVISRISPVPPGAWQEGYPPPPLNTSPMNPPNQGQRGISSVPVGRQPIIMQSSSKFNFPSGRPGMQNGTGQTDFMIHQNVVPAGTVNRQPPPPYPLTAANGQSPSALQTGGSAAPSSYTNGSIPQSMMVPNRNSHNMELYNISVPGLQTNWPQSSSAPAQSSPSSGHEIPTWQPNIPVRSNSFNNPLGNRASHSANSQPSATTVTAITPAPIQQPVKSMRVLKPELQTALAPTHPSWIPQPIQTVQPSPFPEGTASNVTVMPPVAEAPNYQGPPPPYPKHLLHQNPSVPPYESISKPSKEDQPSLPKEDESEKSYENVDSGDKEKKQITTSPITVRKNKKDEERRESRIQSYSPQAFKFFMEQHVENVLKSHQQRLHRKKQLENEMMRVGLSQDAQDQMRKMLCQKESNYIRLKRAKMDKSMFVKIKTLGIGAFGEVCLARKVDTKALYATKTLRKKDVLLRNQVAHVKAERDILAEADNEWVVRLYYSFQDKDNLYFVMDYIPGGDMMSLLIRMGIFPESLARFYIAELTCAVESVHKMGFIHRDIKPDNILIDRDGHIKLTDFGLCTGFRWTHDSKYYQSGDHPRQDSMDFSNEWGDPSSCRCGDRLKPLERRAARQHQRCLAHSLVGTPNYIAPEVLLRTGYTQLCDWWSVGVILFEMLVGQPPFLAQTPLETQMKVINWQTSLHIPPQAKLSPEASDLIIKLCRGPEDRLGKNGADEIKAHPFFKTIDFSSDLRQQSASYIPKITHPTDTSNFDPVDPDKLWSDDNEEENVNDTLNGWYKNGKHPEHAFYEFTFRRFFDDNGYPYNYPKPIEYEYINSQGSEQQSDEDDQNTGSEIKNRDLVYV
Assay: co-IP; SK-Hep-1 cells with TNFAIP8 overexpression; antibodies on magnetic beads (Bio-Rad SureBeads) incubated with the target protein, eluate analysed by western blot; done in both directions

B1: TNFAIP8 (protein, UniProt O95379 1-198)
chain: MHSEAEESKEVATDVFNSKNLAVQAQKKILGKMVSKSIATTLIDDTSSEVLDELYRVTREYTQNKKEAEKIIKNLIKTVIKLAILYRNNQFNQDELALMEKFKKKVHQLAMTVVSFHQVDYTFDRNVLSRLLNECREMLHQIIQRHLTAKSHGRVNNVFDHFSDCEFLAALYNPFGNFKPHLQKLCDGINKMLDEENI
binding: binds
